According to PMC9563141:
These are yes or no findings as the source states them, for the method shown. In cells and extracts the contact can be indirect. For part of these data: A result given as binding can be weak or reduced; the word gives no strength.

Key:
Flag-Beclin 1-ΔBH3ΔCCD = assay: co-IP; 293FT cells co-transfected with Flag-Beclin 1 (FL) or a Beclin 1 deletion construct and MDM2, MDMX or RB; total cell lysates, IP-western
Flag-Beclin 1-ΔBH3 = assay: as above

Row | binding (Flag-Beclin 1-ΔBH3ΔCCD) | binding (Flag-Beclin 1-ΔBH3) | Binder
1 | no binding | binds | MDMX (transfected) (protein, UniProt O15151 1-490) MTSFSTSAQCSTSDSACRISPGQINQVRPKLPLLKILHAAGAQGEMFTVKEVMHYLGQYIMVKQLYDQQEQHMVYCGGDLLGELLGRQSFSVKDPSPLYDMLRKNLVTLATATTDAAQTLALAQDHSMDIPSQDQLKQSAEESSTSRKRTTEDDIPTLPTSEHKCIHSREDEDLIENLAQDETSRLDLGFEEWDVAGLPWWFLGNLRSNYTPRSNGSTDLQTNQDVGTAIVSDTTDDLWFLNESVSEQLGVGIKVEAADTEQTSEEVGKVSDKKVIEVGKNDDLEDSKSLSDDTDVEVTSEDEWQCTECKKFNSPSKRYCFRCWALRKDWYSDCSKLTHSLSTSDITAIPEKENEGNDVPDCRRTISAPVVRPKDAYIKKENSKLFDPCNSVEFLDLAHSSESQETISSMGEQLDNLSEQRTDTENMEDCQNLLKPCSLCEKRPRDGNIIHGRTGHLVTCFHCARRLKKAGASCPICKKEIQLVIKVFIA
2 | no binding | – | RB (transfected) (protein, UniProt P06400 1-928) MPPKTPRKTAATAAAAAAEPPAPPPPPPPEEDPEQDSGPEDLPLVRLEFEETEEPDFTALCQKLKIPDHVRERAWLTWEKVSSVDGVLGGYIQKKKELWGICIFIAAVDLDEMSFTFTELQKNIEISVHKFFNLLKEIDTSTKVDNAMSRLLKKYDVLFALFSKLERTCELIYLTQPSSSISTEINSALVLKVSWITFLLAKGEVLQMEDDLVISFQLMLCVLDYFIKLSPPMLLKEPYKTAVIPINGSPRTPRRGQNRSARIAKQLENDTRIIEVLCKEHECNIDEVKNVYFKNFIPFMNSLGLVTSNGLPEVENLSKRYEEIYLKNKDLDARLFLDHDKTLQTDSIDSFETQRTPRKSNLDEEVNVIPPHTPVRTVMNTIQQLMMILNSASDQPSENLISYFNNCTVNPKESILKRVKDIGYIFKEKFAKAVGQGCVEIGSQRYKLGVRLYYRVMESMLKSEEERLSIQNFSKLLNDNIFHMSLLACALEVVMATYSRSTSQNLDSGTDLSFPWILNVLNLKAFDFYKVIESFIKAEGNLTREMIKHLERCEHRIMESLAWLSDSPLFDLIKQSKDREGPTDHLESACPLNLPLQNNHTAADMYLSPVRSPKKKGSTTRVNSTANAETQATSAFQTQKPLKSTSLSLFYKKVYRLAYLRLNTLCERLLSEHPELEHIIWTLFQHTLQNEYELMRDRHLDQIMMCSMYGICKVKNIDLKFKIIVTAYKDLPHAVQETFKRVLIKEEEYDSIIVFYNSVFMQRLKTNILQYASTRPPTLSPIPHIPRSPYKFPSSPLRIPGGNIYISPLKSPYKISEGLPTPTKMTPRSRILVSIGESFGTSEKFQKINQMVCNSDRVLKRSAEGSNPPKPLKKLRFDIEGSDEADGSKHLPGESKFQQKLAEMTSTRTRMQKQKMNDSMDTSNKEEK
